Assay: Ninhydrin test for L-cysteine grafted through the catechol linker
Format: physicochemical
Settings: then L-cysteine in 10× PBS overnight, 90° C. 10 minutes

O=C(CI)c1ccc(O)c(O)c1 [4-iodoacetylcatechol, 4-(iodoacetyl)catechol]
appearance after 1% aqueous ninhydrin treatment (activated glass grafted with linker): Purple-blue spots appeared
appearance after 1% aqueous ninhydrin treatment (filter paper grafted with linker): purple
